According to patent publication US20220396620A1:
Results are given in words; binding and its absence hold for the method and conditions named. Some results given as binding are weak or reduced against the parent protein; the word gives no strength.

Columns and labels:
[1] = biological target: human cannabinoid receptor type 1 (CB1) (human) (UniProt P21554); experiment: FACS on CHO-huCB-1 cells, single concentration 30 ug/mL
[2] = biological target: human cannabinoid receptor type 1 (CB1) (human) (UniProt P21554); experiment: flow cytometry, single point at 30 ug/mL antibody on CHO-huCB-1 cells
[3] = biological target: human cannabinoid receptor type 1 (CB1) (human) (UniProt P21554); experiment: flow cytometry, single point at 30 ug/mL antibody, signal on CHO-huCB-1 cells relative to CHO parental cells

binding [1] | binding [2] | binding [3] | Binder
binds | binds | – | M7-H1 humanized anti-CB1 antibody (antibody, human IgG1, kappa, L234A L235A, V domains shown) VH: QVQLVQSGAEVVKPGASVKLSCKASSYTFTRYWMNWVKQAPGQGLEWIGMIDPYDSETHYNQKFKGKATLTVDKSTSTAYMELSSLRSEDTAVYFCARSQPRYYAMDYWGQGTTVTVSS VL: DIQMTQSPSSLSASLGDRVTLTCRASQEISGFLSWLQLKPGKTIKRLIYAASSLDSGVPSRFSGSWSGTDYTLTISSLQPEDFADYYCLQYSSYPYTFGGGTKLEIKR
binds | – | binds | M7-H7 humanized anti-CB1 antibody (antibody, human IgG1, kappa, L234A L235A, V domains shown) VH: QVQLVQSGAEVVKPGASVKLSCKASSYTFTRYWMNWVKQAPGQGLEWIGMIDPYDSETHYNQKFKGKATLTVDKSTSTAYMELSSLRSEDTAVYFCARSQPRYYAMDYWGQGTTVTVSS VL: DIQMTQSPSSLSASLGDRVTLTCRASQEISGFLSWLQLKPGKTIKRLIYAASSLDSGVPSRFSGSWSGTDYTLTISSLQPEDFADYYCLQYSSYPYTFGGGTKLEIKR
binds | binds | – | M7-H4 humanized anti-CB1 antibody (antibody, human IgG1, kappa, L234A L235A, V domains shown) VH: QVQLVQSGAEVKKPGASVKVSCKASSYTFTRYWMNWVKQAPGQGLEWIGMIDPYDSETHYNQKFQGRATLTVDTSTSTVYMELSSLRSEDTAVYFCARSQPRYYAMDYWGQGTTVTVSS VL: DIQMTQSPSSLSASVGDRVTLTCRASQEISGFLSWLQLKPGKAIKRLIYAASSLDSGVPSRFSGSWSGTDYTLTISSLQPEDFADYYCLQYSSYPYTFGGGTKVEIKR
